PMC5566117
Results are given in words; binding and its absence hold for the method and conditions named. In cells and extracts the contact can be indirect. Some entries that bind do so weakly or less than the wild type. Where a sequence is shown, tags or fusion partners need not be part of it.

Assays:
[1] = molecular target: T1, FLAG-tagged Pld6 (MitoPLD, phospholipase D family member 6) (mouse) (UniProt Q5SWZ9); assay: pull-down; GST pull-down (Supplementary Figure S5A-C); constructs, bait and conditions not shown
T1 sequence: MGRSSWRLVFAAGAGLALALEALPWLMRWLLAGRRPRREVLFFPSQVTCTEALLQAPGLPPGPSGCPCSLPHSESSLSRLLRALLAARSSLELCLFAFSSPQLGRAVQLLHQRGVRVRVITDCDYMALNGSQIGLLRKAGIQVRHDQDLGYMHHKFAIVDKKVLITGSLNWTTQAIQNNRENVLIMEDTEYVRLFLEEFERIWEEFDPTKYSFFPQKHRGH

[2] = molecular target: T1, FLAG-tagged Pld6 (MitoPLD, phospholipase D family member 6) (mouse); assay: co-IP; HEK293T cells co-expressing FLAG-Pld6 with GST-tagged Gyk, Gykl1 or Gk2; lysis in IP buffer (50 mM Tris-HCl pH 8.0, 100 mM NaCl, 1 mM EDTA, 0.5% NP-40, 10% glycerol); anti-FLAG M2 affinity gel, 4 °C, 60 min; blotted with anti-GST and anti-FLAG

binding [1]: binds
binding [2]: binds
B1: GST-tagged Gk2 (glycerol kinase 2) (protein, UniProt Q9WU65 1-554)
chain: MAASKQTSAGPLVGAVVQGTNSTRFLVFNSKTAELVCSHQVELTQEYPKEGWVEQDPKEILKSVYECIAKACEKLAEVNIDISNIKAIGVSNQRETTVVWDKFTGDPLYNAVVWLDLRTQSTVETLTKKIPGNSNFVKSKTGLPLSTYFSAVKLRWMLDNLRPIQKAVEEGRAMFGTIDSWLIWCMTGGVNGGIHCTDVTNACRTMLFNIHSLEWDKDLCDFFEIPMSILPNVCSSSEIYGLMTSGALEGVPISGCLGDQSAALVGQMCFHEGQAKNTYGTGCFLLCNTGQKCVFSEHGLLTTLAYKLGKNKPVFYALEGSVAIAGAVIRWLRDNFEIITTSGEVENLAREVGTSYGCYFVPAFSGLYAPYWEPSARGIICGLTQFTNKCHIAFAALEAVCFQTREILDAMNRDCGIPLSHLQVDGGMTNNRILMQLQADILHIPVVKSVMPETTALGAAMAAGAAEGVNVWSLEPEDLSTILMERYEPQIQATESEIRFSTWKRAVMKSMGWVTAKDPENGDNPVFSCLPLGFFIVSSMTLLIGARCVSTAEE
